Assay results from US6455535B1, “Substituted aminoquinazolinone (thione) derivatives or salts thereof, intermediates thereof, and pest controllers and a method for using the same” (Nihon Nohyaku Co., Ltd., priority 1999, dated 2002).
Some entries share one result that the patent states for a list of compounds. At least one compound was matched to its structure with a doubt left.

Columns and labels:
[1] = test system: green peach aphid (Myzus persicae); experiment: Control efficacy against green peach aphid, spray on potted Chinese cabbage (Test Example 1); type: in vivo; settings: 500 ppm liquid chemical sprayed on stalks and leaves of Chinese cabbage; counted six days after spraying
[2] = test system: greenhouse whitefly (Trialeurodes vaporariorum); experiment: Insecticidal test on greenhouse whitefly, tomato leaf spray (Test Example 3); type: in vivo; settings: 100 ppm test liquid sprayed on tomato leaf; 20 adults inoculated
Experimental: Insecticidal Test on Greenhouse Whitefly (Trialeurodes vaporariorum)
Each compounds of the present invention listed in Table 3 and Table 4 was dispersed in and diluted with water to prepare a test liquid containing 100 ppm of the test compound. By use of a spraygun, the test liquid was sprayed on the surface of a leaf of tomato plant put in a 20 ml-vial bottle containing water on a turn table. After air-dried, the leaf treated with the test liquid was put in a glass cylinder, and inoculated with 20 adults of greenhouse whitefly thereon. After the inoculation, the leaf was placed in a greenhouse, and the number of adults of greenhouse whitefly was counted. The mortality of the adults was calculated similar to that of conducted in Test Example 2, and the insecticidal effect of each one of the test compounds was evaluated by the method identical to Test Example 1.

Row | SMILES | insecticidal effect rating (control efficacy) [1] | insecticidal effect rating (mortality of adults) [2]
1 | O=C1Nc2ccc(C(F)(F)C(F)(F)C(F)(F)C(F)(F)C(F)(F)C(F)(F)F)cc2CN1N=Cc1cccnc1 [compound 26] | A (100) | A (100)
2 | O=C1Nc2ccc(Br)cc2CN1N=Cc1cccnc1 [compound 6] | A (100) | A (100)
3 | O=C1Nc2ccc(C(F)(F)C(F)(F)C(F)(F)C(F)(F)C(F)(F)C(F)(F)F)cc2CN1NCc1cccnc1 [compound 204] | A (100) | A (100)
4 | O=C1Nc2ccc(C(F)(C(F)(F)F)C(F)(F)F)cc2CN1NCc1cccnc1 [compound 200] | A (100) | A (100)
5 | O=C1Nc2ccc(Br)cc2CN1NCc1cccnc1 [compound 184] | A (100) | A (100)
6 | O=C1Nc2ccc(C(F)(F)C(F)(F)F)cc2CN1N=Cc1cccnc1 [Compound No. 18] | A (100) | A (100)
7 | O=C1Nc2ccc(C(F)(C(F)(F)F)C(F)(F)F)cc2CN1N=Cc1cccnc1 [compound 22] | A (100) | A (100)
